From publication PMC7819943, “Rice protein-binding microarrays: a tool to detect cis-acting elements near promoter regions in rice” come the findings set out here.

Chains of the proteins cited; added tags and fusions are not shown.
UniProt Q0JBA9, entry or part of it: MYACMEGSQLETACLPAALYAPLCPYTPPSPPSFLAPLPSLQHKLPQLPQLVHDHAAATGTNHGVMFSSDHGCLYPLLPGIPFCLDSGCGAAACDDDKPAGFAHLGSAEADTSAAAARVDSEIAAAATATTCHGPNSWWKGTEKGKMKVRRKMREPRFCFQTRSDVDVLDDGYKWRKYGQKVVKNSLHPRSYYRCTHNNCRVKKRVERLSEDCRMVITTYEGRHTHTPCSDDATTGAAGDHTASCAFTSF

The other results are listed elsewhere or left out.

The assay deals with OsWRKY34 (Oryza sativa, UniProt Q0JBA9 1-250). The assay can be described thus: protein-binding microarray (RPBM); PBS, 2% BSA, 51.3 ng/ul salmon testes DNA, 50 uM zinc acetate, 200 nM TF, 25 C, 1 h; high values mean tight binding. Particulars: protein: recombinant; tags: N-terminal polyhistidine and DsRed monomer fusion (pET32a); label: CyDye5-dUTP incorporated in the synthesized complementary strand; 3' TTTTT single-stranded linker to array surface; dsDNA, one strand shown. A digest of the protocol: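 In PBS with 2% BSA, salmon testes DNA and 50 µM zinc acetate, 200 nM protein was incubated on a custom Agilent array at 25 °C for 1 h and then washed off. The array had been made double-stranded by primer extension with Cy5-dUTP and blocked with 2% BSA. The proteins were transcription factors fused N-terminally to polyhistidine and DsRed, expressed in E. coli BL21-CodonPlus and purified on Ni–NTA. The binding signal is per-feature fluorescence intensity (arbitrary units) from an Axon 4000B scanner.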
“CTCCGCTCCGCGCCTCGCCTCGCCGCCTCGGCATCCGCGCCGGAGTCACCTAGTGCAG”: the binding signal is 10100 fluorescence intensity (a.u.).

Regarding “AAATATATAGAGTTTACCCTGTTTTTAATTATTATTTTCTCGGAGTCACCTAGTGCAG”, the binding signal is 8700 fluorescence intensity (a.u.).

For “GGGAATGCCCCTAATTCAGGTCACTGTTGCCCTCTGCAGTCGGAGTCACCTAGTGCAG”, the binding signal was 8530 fluorescence intensity (a.u.).

Turning to “TAGTTCTAAAACATACCATATCTGTATTACTCTCCATTCCCGGAGTCACCTAGTGCAG”, the binding signal was 8610 fluorescence intensity (a.u.).

As to “TCTCTTTAAGAGTTTGTCACTCTTGCTCGCGGTGTTTAACCGGAGTCACCTAGTGCAG”, the binding signal is 9280 fluorescence intensity (a.u.).

“CGCCTCGCATCACCCCTAGCCCAAGCCAACCACCCTACACCGGAGTCACCTAGTGCAG”: the binding signal is 8630 fluorescence intensity (a.u.).

Regarding “AGCGAGCGGTATCACTTGCACCAGCTTATCCATCCTCATCCGGAGTCACCTAGTGCAG”, the binding signal is 8550 fluorescence intensity (a.u.).

“ATAAGACGAATGGTCAAACATGTGCTAAAAAGTCAACGGTCGGAGTCACCTAGTGCAG”: the binding signal was 12900 fluorescence intensity (a.u.).

As to “CTGCCCACTGCCTTTTGAGGGGTGGGGCTGCCCACCTTGACGGAGTCACCTAGTGCAG”, the binding signal was 8640 fluorescence intensity (a.u.).

Regarding “TTTGTTGTGACGAAATGTCTTAATCACATGGATGGCGGGGCGGAGTCACCTAGTGCAG”, the binding signal was 9660 fluorescence intensity (a.u.).

Regarding “ACCATATGTCCATTTCCCTAACACGTCTCCTATTTCACTGCGGAGTCACCTAGTGCAG”, the binding signal was 9030 fluorescence intensity (a.u.).

Take “ATAAATTAAGTACCAGCCTAGCCATTTGTTTTGGTTGTTTCGGAGTCACCTAGTGCAG”: the binding signal is 8230 fluorescence intensity (a.u.).

Take “GCAACACCTTTCCTTGCAACCAAAGCCAACCTTCTAGCTACGGAGTCACCTAGTGCAG”: the binding signal is 8780 fluorescence intensity (a.u.).

Consider “AGAACTCCCTTTGCCTGGATCTGTTTGTTCCTCGCACCATCGGAGTCACCTAGTGCAG”, for which the binding signal is 8560 fluorescence intensity (a.u.).

Consider “CGCGGGGTCGGGCCTTACTCCGCCGTCGATACTGGGAGAGCGGAGTCACCTAGTGCAG”, for which the binding signal is 8760 fluorescence intensity (a.u.).

Consider “CGCTGGTTATTCCCATCTTCTCCCGTCGTCTGTACTGTATCGGAGTCACCTAGTGCAG”, for which the binding signal is 9320 fluorescence intensity (a.u.).

Regarding “CCATGTGCTCGTTTCAGCTTCTTCTACCTCCGTTTCACACCGGAGTCACCTAGTGCAG”, the binding signal was 13500 fluorescence intensity (a.u.).

For “GTAGTATATTTTTTTGCTGCTGGTATGGATAATGCCTATGCGGAGTCACCTAGTGCAG”, the binding signal is 9640 fluorescence intensity (a.u.).

As for “AATTTTTTTTGGCCGATAGATTATTTCTGTAAATATTTAACGGAGTCACCTAGTGCAG”, the binding signal was 8180 fluorescence intensity (a.u.).

With “TCCTGTACACCTCGAACCTCCTCTGCTTCTCTTCGGCAGTCGGAGTCACCTAGTGCAG”, the binding signal was 8260 fluorescence intensity (a.u.).

With “CCACCTCCGCCGCCGCCACCCTCCGCCGCCGCCGCCGCCACGGAGTCACCTAGTGCAG”, the binding signal was 8940 fluorescence intensity (a.u.).

Turning to “CTTGGGTTGGGTTTTCAGTCCGGGGAATGAACTCGCTCGCCGGAGTCACCTAGTGCAG”, the binding signal is 12900 fluorescence intensity (a.u.).

As to “CATCAACCTTATCATGATAACATCACGCTGACGTGTCCTTCGGAGTCACCTAGTGCAG”, the binding signal was 9570 fluorescence intensity (a.u.).

On to “ACGTCAATTTGTTTTATCATTTTTAGGTATGCACTACATACGGAGTCACCTAGTGCAG”, for which the binding signal was 8860 fluorescence intensity (a.u.).

As for “TTCTCTGTAACCGTTCAATTTTCTCATTTTCTCAGAGAACCGGAGTCACCTAGTGCAG”, the binding signal was 8320 fluorescence intensity (a.u.).

“ATCCAACAATCTACCGGACCATTTCTTTCTTTAATTGCCACGGAGTCACCTAGTGCAG”: the binding signal was 9420 fluorescence intensity (a.u.).

On to “CCGCCGCCGTTCCGTTTTTTCTCTCTCGCGCCGCCGCCAGCGGAGTCACCTAGTGCAG”, for which the binding signal was 17300 fluorescence intensity (a.u.).

In the case of “TGTAGAGGTTGGTGGGTGGGTCGATTGGCTTAGCGAGAGGCGGAGTCACCTAGTGCAG”, the binding signal was 13800 fluorescence intensity (a.u.).

On to “TTTATATCATATTTCACGCGTACATTTTTCAAACTGTTAACGGAGTCACCTAGTGCAG”, for which the binding signal is 9570 fluorescence intensity (a.u.).

“AGGTCGAGATGGAGTTCCTTGGAGGCATGCCGAAGGACGTCGGAGTCACCTAGTGCAG”: the binding signal is 8270 fluorescence intensity (a.u.).

Regarding “GAAATATAACCCTTATCGCTCAGACTCATTGGTATCGCTGCGGAGTCACCTAGTGCAG”, the binding signal was 8450 fluorescence intensity (a.u.).

With “CCATACTTCCTATTTCTATATTCGAACTGGCTAGCGTTGACGGAGTCACCTAGTGCAG”, the binding signal is 10100 fluorescence intensity (a.u.).

As for “GAGCATCGAGCTTGGTGGTGGTGGTGGTGGCGAGGCGATGCGGAGTCACCTAGTGCAG”, the binding signal is 10300 fluorescence intensity (a.u.).

Turning to “CTATATTTCTATTTTACCTTTCTAACTTATTGTGTTTTTTCGGAGTCACCTAGTGCAG”, the binding signal was 11600 fluorescence intensity (a.u.).

Consider “GAACCAACTTATACTACAATTCTAAGAACATCTTTTCCTTCGGAGTCACCTAGTGCAG”, for which the binding signal is 8250 fluorescence intensity (a.u.).

For the sequence “TAAACAATGATCGCGATGTCCGGTAGCTAATTACTATTTTCGGAGTCACCTAGTGCAG”, the binding signal was 10500 fluorescence intensity (a.u.).

Consider “ATTTTGTTGTCGCACCTATATCATCACATGCCACACTTTTCGGAGTCACCTAGTGCAG”, for which the binding signal was 12700 fluorescence intensity (a.u.).

In the case of “TCTCACCTGCCTCTCCATCCCATCTCCTATACAACAGTTCCGGAGTCACCTAGTGCAG”, the binding signal is 9160 fluorescence intensity (a.u.).

Take “ACGATTCCTCGAGTGCTACAAACGGTTTCGCTACCAACAACGGAGTCACCTAGTGCAG”: the binding signal was 9170 fluorescence intensity (a.u.).

In the case of “TTATTTTCTCCACTCACTACTTGTTCGTTTAGCAATTTGTCGGAGTCACCTAGTGCAG”, the binding signal was 8750 fluorescence intensity (a.u.).

On to “TGATAATCTGTGTACCTTTGTGTTCATATGCTATACTCCTCGGAGTCACCTAGTGCAG”, for which the binding signal was 8920 fluorescence intensity (a.u.).

Consider “GCTGCTTGACATCTTAGAATGATACTATCTGTTGTTTCTCCGGAGTCACCTAGTGCAG”, for which the binding signal is 9320 fluorescence intensity (a.u.).
